{"source": "paper PMC7179445", "about": "“Anticancer Activities of Newly Synthesized Chiral Macrocyclic Heptapeptide Candidates” (Molecules, 2020)", "key": {"MCF-7 cells": {"tested_on": "MCF-7 cells", "experiment": "cells", "assay_type": "cell-based", "conditions": "Homo sapiens, MCF7; breast cancer cell line MCF-7; MTT assay, RPMI 1640, 72 h incubation, absorbance 570 nm; mean ± SD, triplicates; read-out: IC50 (compound concentration required to inhibit the cell viability by 50%), MCF-7", "method": "(§1) The cytotoxic effects of the prepared compounds on MCF-7 and HepG2 cells were investigated with the help of standard MTT assay. […] Plates were then further incubated for 72 h. Afterwards, 20 μL of MTT (5 mg/mL in PBS) were pipetted to the wells and incubated for another 4 h. The medium was then aspirated and 100 μL DMSO were added/well. Absorbance was read using a microplate reader at 570 nm. IC50 values, used to compare compound toxicity with control cells, were obtained from linear regression of the dose–response curve using Origin® 6.1 software (OriginLab Corporation, Northampton, MA, USA). Experiments were performed in triplicates, and tamoxifen and cisplatin were used as positive control. Data were represented as mean ± SD."}, "HepG2 cells": {"tested_on": "HepG2 cells", "experiment": "cells", "assay_type": "cell-based", "conditions": "Homo sapiens; hepatocellular cancer cell line HepG2; MTT assay, RPMI 1640, 72 h incubation, absorbance 570 nm; mean ± SD, triplicates; read-out: IC50 (compound concentration required to inhibit the cell viability by 50%), HepG-2", "method": "as §1"}}, "data": [{"smiles": "CC/C(=C(\\c1ccccc1)c1ccc(OCCN(C)C)cc1)c1ccccc1", "note": "[Tamoxifen, reference compound]", "values": [{"measurement": "IC50", "setting": "MCF-7 cells", "result": "22.4 ± 2.41", "unit": "µM"}, {"measurement": "IC50", "setting": "HepG2 cells", "result": "29.3 ± 1.15", "unit": "µM"}]}]}
